Experimental data reported in patent publication US7825068B2, “Heterocyclylethylcarboxamide derivatives” (Bayer Cropscience AG, priority 2005, dated 2010).
Some of these results come from one statement about several compounds together.

Legend:
Pyrenophora teres = test: In vivo test on Pyrenophora teres (preventive spray on barley plants); details: barley plants (Express variety), grading 12 days after contamination, in comparison with control plants
Experimental: The active ingredient tested is prepared by potter homogenisation in a concentrated suspension type formulation at 100 g/l. […] Barley plants (Express variety) in starter cups, sown on a 50/50 peat soil-pozzolana substrate and grown at 12° C., are treated at the 1-leaf stage (10 cm tall) by spraying with the aqueous suspension described above. Plants, used as controls, are treated with an aqueous solution not containing the active material. After 24 hours, the plants are contaminated by spraying them with an aqueous suspension of Pyrenophora teres spores (12,000 spores per ml). The spores are collected from a 12-day-old culture. The contaminated barley plants are incubated for 24 hours at about 20° C. and at 100% relative humidity, and then for 12 days at 80% relative humidity. Grading is carried out 12 days after the contamination, in comparison with the control plants.

Alternaria brassicae = test: In vivo test on Alternaria brassicae (preventive spray on radish plants); details: dose of 330 ppm; radish plants (Pernot variety); grading 6 to 7 days after contamination, in comparison with control plants
Experimental: The active ingredient tested is prepared by potter homogenisation in a concentrated suspension type formulation at 100 g/l. […] Radish plants (Pernot variety) in starter cups, sown on a 50/50 peat soil-pozzolana substrate and grown at 18-20° C., are treated at the cotyledon stage by spraying with the aqueous suspension described above. Plants, used as controls, are treated with an aqueous solution not containing the active material. After 24 hours, the plants are contaminated by spraying them with an aqueous suspension of Alternaria brassicae spores (40,000 spores per cm^3). The spores are collected from a 12-13-day-old culture. The contaminated radish plants are incubated for 6-7 days at about 18° C., under a humid atmosphere. Grading is carried out 6 to 7 days after the contamination, in comparison with the control plants.

Compound: Cc1cc(C(=O)NCCc2cn(C)nc2C(F)(F)F)c(C)o1 [Compound J-1]
- protection (good (at least 50%) to total) (Pyrenophora teres; dose of 110 ppm): at least 50%

Compound: Cc1occc1C(=O)NCCc1cn(C)nc1C(F)(F)F [Compound J-2]
- protection (good (at least 50%) to total) (Pyrenophora teres; dose of 330 ppm): at least 50%

Compound: Cn1cc(CCNC(=O)c2ccsc2I)c(C(F)(F)F)n1 [Compound G-1]
- protection (good (at least 50%) to total) (Pyrenophora teres; dose of 330 ppm): at least 50%

Compound: Cn1cc(CCNC(=O)c2ccoc2I)c(C(F)(F)F)n1 [Compound J-4]
- protection (good (at least 50%) to total) (Alternaria brassicae): at least 50%
- protection (good (at least 50%) to total) (Pyrenophora teres; dose of 330 ppm): at least 50%
